{
  "source": "patent US9125406B2",
  "about": "“Methods and compositions for control of cabbage looper, trichoplusia ni” (Simon Fraser University, priority 2008, dated 2015)",
  "data": [
    {"system": "third instar T. ni larvae", "experiment": "Leaf disk choice feeding deterrence bioassay", "format": "in vivo, Trichoplusia ni", "details": "ratio of % deterrence to DC50 × % mortality; average used for ranges, 0.1 used for mortality ≤0", "from_the_text": "Cabbage plants (Brassica oleraceae var. Stonehead) used in the bioassays were routinely grown in plastic pots with a mixture of sandy loam soil and peat moss (4:1) in a greenhouse at the University of British Columbia, Vancouver, BC, Canada. Leaves were collected from cabbage plants that were 5-6 weeks old.\nT. ni larvae and moths were obtained from a long established colony (>50 generations) maintained on an artificial diet, Velvetbean Caterpillar Diet No. F9796 [Bio-Sery Inc. (Frenchtown, NIL)] in the insectary of the University of British Columbia (UBC).\nInitial screening for feeding deterrent effects was conducted at 50 μg/cm^2 in feeding deterrent bioassays.\nLarvae were given the choice of feeding on two leaf disks, one treated with 10 μL of a solution of the test substance painted on each side and the other treated with a carrier solvent alone. The number of larvae was 25 per treatment.\nFeeding deterrence data (percent) for initial screening concentration were analyzed by analysis of variance (ANOVA) after arcsin transformation using statistics software (Statistix 7. Analytical Software, Statistix 7 for Windows 95, 98, NT, 2000. Analytical Software, Tallahassee).", "values": [
      {"smiles": "CCCOc1ccc(OCCC)cc1", "note": "[3c{3,3}, 1,4-Dipropoxy benzene]", "Index = FD/(DC50 × mortality)": 0.2},
      {"smiles": "CCCOc1ccc(OCC)cc1", "note": "[3c{2, 3}, 4-ethoxy-1-propoxybenzene]", "Index = FD/(DC50 × mortality)": 0.18},
      {"smiles": "CCCOc1cccc(OCCC(C)C)c1", "note": "[3b{3, 5}, 3-propoxy-1-isopentoxybenzene]", "Index = FD/(DC50 × mortality)": 0.6},
      {"smiles": "C=CCc1cc(OCCC)ccc1OC", "note": "[5c{3, 1}, 1-methoxy-2-allyl-4-propoxy-benzene]", "Index = FD/(DC50 × mortality)": 1.7},
      {"smiles": "CCCCOc1ccccc1OCCC", "note": "[3a{3, 4}, 1-propoxy-2-butoxybenzene]", "Index = FD/(DC50 × mortality)": 0.25},
      {"smiles": "CCOc1ccc(OCC)cc1", "note": "[3c{2, 2}, 1,4-Diethoxy benzene]", "Index = FD/(DC50 × mortality)": 0.03},
      {"smiles": "C=CCOc1ccccc1OCCCC", "note": "[3a{4, 6}, 1-allyloxy-2-butoxybenzene]", "Index = FD/(DC50 × mortality)": 0.3},
      {"smiles": "C=CCOc1ccc(OCCC)cc1", "note": "[3c{3, 6}, 1-allyloxy-4-propoxybenzene]", "Index = FD/(DC50 × mortality)": 2000},
      {"smiles": "C=CCOc1ccccc1OCCC", "note": "[3a{3, 6}, 1-allyloxy-2-propoxybenzene]", "Index = FD/(DC50 × mortality)": 0.5},
      {"smiles": "CCCOc1cccc(OCCC)c1", "note": "[3b{3,3}, 1,3-Dipropoxy benzene]", "Index = FD/(DC50 × mortality)": 0.05},
      {"smiles": "C=CCOc1ccc(OCC=C)cc1", "note": "[3c{6,6}, 1,4-Diallyloxy benzene]", "Index = FD/(DC50 × mortality)": 0.25},
      {"smiles": "C=CCOc1cccc(OCC=C)c1", "note": "[3b{6, 6}, 1,3-Diallyloxy benzene]", "Index = FD/(DC50 × mortality)": 0.4},
      {"smiles": "CCOc1cccc(OCC)c1", "note": "[3b{2,2}, 1,3-Diethoxy benzene]", "Index = FD/(DC50 × mortality)": 0.08},
      {"smiles": "C=CCc1cc(OC)ccc1OC", "note": "[5c{1, 1}, 1,4-dimethoxy-2-allyl-benzene]", "Index = FD/(DC50 × mortality)": 0.1}
    ]}
  ]
}
